Values quoted from earlier work in patent publication US5182279A, “Benzothienopyrazinedione compounds and their preparation and use” (Novo Nordisk A/S, priority 1990, dated 1993).
At least one structure is not confirmed: it was looked up by name or label, or the drawing left a doubt.

Test system: glycine site coupled to the NMDA ionophor complex
Conditions: literature, in words; cited from earlier work

## NC1(C(=O)O)CC1 [1-amino-cyclopropanecarboxylate]
  activity at the glycine site: partial agonists
